According to the supplement of paper PMC10849652:
Some of the results follow. Residues, ends and D or L forms follow the SMILES beside them. *: point of attachment. Cbz = O=C(OCc1ccccc1)*

Chains of the proteins cited; added tags and fusions are not shown. Lines headed by an entry give the natural chain unless they say otherwise; changes in a name come on top.
UniProt P19338, whole entry, looked up: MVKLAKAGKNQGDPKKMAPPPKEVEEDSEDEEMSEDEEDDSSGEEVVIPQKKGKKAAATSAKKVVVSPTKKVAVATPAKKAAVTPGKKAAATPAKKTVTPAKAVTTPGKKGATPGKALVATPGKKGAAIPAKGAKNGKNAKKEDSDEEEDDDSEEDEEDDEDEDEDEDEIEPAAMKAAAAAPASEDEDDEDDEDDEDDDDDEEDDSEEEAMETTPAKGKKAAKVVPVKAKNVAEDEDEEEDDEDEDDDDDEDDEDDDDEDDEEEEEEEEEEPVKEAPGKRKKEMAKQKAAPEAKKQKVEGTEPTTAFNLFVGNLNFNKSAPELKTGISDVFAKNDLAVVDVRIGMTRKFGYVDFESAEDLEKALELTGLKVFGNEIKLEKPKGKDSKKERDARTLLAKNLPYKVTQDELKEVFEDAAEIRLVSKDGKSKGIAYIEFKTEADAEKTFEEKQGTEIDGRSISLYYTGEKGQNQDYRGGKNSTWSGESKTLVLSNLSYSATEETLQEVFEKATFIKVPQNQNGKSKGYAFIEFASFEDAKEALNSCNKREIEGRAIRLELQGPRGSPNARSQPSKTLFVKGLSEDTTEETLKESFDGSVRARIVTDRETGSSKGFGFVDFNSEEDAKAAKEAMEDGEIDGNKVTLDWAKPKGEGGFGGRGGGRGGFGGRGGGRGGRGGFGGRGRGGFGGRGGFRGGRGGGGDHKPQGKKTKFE
UniProt Q92692, whole entry, looked up: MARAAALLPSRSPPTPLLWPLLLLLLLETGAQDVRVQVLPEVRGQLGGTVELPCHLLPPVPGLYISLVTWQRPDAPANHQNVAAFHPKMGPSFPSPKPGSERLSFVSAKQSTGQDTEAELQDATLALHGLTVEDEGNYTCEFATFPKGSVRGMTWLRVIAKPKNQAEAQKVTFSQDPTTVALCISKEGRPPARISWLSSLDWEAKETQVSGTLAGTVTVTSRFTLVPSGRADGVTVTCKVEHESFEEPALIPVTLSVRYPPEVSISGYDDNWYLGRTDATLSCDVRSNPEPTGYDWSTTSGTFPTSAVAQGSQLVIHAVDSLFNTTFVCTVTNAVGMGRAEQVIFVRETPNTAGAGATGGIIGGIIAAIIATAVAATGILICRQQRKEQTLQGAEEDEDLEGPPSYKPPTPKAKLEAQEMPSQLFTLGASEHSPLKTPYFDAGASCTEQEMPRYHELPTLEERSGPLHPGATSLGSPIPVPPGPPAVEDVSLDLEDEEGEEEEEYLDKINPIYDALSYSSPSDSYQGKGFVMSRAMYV
UniProt Q9UK23: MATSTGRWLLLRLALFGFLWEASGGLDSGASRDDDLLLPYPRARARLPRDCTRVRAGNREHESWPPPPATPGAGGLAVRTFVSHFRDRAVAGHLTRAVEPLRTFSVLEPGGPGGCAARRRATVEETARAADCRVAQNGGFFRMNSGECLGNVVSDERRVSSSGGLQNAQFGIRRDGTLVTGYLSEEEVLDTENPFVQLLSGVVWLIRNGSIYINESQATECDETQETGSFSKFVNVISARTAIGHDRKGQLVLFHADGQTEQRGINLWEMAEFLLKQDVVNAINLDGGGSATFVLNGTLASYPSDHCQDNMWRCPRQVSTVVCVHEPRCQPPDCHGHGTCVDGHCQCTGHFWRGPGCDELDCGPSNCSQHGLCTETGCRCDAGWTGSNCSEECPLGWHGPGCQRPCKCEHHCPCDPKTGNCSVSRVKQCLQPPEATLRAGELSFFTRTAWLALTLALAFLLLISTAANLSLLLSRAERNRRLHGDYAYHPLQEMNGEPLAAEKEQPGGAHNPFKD
UniProt Q9NR45: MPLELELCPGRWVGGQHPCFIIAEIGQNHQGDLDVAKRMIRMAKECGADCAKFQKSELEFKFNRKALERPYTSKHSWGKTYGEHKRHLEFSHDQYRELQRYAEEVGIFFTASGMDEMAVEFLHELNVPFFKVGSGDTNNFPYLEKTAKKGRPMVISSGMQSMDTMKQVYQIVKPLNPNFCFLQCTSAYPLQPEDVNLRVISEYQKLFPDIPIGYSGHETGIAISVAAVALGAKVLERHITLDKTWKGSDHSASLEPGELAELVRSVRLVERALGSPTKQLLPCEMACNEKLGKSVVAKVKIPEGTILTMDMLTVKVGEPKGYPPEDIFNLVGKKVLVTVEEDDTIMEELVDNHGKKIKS
UniProt Q9BPX3, whole entry, looked up: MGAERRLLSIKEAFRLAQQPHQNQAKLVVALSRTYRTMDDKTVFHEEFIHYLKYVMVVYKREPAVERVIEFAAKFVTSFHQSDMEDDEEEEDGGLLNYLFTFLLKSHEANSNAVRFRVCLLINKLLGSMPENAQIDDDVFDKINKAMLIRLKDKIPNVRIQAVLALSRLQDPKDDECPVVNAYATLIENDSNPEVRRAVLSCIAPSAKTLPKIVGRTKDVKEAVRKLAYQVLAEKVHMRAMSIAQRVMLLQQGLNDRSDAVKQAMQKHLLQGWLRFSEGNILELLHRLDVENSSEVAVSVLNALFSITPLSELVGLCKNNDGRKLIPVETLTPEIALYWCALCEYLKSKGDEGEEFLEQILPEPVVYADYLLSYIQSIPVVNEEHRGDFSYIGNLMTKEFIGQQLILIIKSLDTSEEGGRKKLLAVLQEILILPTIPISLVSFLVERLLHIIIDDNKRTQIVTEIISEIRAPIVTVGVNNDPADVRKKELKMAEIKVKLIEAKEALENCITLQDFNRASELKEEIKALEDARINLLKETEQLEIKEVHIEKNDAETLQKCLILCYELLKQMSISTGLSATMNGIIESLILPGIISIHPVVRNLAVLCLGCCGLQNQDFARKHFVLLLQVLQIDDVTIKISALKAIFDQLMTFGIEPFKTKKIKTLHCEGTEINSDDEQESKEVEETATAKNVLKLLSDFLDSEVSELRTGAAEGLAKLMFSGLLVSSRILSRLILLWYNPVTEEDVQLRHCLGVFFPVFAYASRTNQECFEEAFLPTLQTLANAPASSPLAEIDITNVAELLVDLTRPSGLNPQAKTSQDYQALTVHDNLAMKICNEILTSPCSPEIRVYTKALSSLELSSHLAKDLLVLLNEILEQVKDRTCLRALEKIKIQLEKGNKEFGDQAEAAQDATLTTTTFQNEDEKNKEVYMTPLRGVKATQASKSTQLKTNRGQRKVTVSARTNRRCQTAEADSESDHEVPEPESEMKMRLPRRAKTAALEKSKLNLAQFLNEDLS
UniProt O00483, whole entry, looked up: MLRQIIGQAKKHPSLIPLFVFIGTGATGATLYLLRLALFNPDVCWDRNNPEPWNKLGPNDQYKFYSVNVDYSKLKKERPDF
UniProt Q8TBE9: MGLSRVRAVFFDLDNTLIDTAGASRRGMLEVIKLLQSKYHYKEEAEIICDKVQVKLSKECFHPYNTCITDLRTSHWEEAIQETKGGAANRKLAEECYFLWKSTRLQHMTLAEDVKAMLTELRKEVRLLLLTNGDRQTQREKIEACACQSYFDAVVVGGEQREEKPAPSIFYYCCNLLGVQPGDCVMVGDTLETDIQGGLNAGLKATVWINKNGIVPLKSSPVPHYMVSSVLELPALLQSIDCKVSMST
UniProt Q9GZM8: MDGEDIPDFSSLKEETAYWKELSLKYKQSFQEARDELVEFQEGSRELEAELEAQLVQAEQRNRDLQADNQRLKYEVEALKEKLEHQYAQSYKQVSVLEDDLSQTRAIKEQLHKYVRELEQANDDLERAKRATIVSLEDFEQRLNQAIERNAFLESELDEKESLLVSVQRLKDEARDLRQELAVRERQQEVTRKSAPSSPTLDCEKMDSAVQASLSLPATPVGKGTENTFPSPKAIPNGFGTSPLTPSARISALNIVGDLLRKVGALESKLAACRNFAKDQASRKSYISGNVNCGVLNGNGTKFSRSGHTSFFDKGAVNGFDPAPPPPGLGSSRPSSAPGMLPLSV
UniProt O95169, whole entry, looked up: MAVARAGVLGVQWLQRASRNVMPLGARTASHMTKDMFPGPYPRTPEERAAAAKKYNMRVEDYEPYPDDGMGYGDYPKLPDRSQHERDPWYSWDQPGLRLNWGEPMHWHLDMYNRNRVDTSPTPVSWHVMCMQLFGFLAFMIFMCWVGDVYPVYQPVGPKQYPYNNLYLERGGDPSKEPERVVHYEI
UniProt P56556, whole entry, looked up: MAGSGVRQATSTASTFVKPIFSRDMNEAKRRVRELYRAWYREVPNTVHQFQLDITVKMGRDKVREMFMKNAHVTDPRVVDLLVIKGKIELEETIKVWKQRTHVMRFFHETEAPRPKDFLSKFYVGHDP
UniProt Q8WUY8: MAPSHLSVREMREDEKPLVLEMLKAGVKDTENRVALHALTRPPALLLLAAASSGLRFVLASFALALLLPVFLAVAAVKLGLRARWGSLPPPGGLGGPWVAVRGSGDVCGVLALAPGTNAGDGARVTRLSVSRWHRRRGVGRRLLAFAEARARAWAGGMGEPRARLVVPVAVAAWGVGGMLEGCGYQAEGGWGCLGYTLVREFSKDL
UniProt Q9BRA0: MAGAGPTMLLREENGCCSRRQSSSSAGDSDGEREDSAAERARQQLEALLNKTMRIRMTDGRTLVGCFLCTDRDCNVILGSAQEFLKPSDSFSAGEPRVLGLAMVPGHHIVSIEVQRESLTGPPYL
UniProt O75251, whole entry, looked up: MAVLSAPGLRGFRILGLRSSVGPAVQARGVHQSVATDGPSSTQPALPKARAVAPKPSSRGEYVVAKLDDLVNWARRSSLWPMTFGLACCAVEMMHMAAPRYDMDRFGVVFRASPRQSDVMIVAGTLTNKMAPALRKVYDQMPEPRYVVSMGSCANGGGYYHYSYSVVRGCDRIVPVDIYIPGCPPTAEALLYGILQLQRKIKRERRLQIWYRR
UniProt P49321, whole entry, looked up: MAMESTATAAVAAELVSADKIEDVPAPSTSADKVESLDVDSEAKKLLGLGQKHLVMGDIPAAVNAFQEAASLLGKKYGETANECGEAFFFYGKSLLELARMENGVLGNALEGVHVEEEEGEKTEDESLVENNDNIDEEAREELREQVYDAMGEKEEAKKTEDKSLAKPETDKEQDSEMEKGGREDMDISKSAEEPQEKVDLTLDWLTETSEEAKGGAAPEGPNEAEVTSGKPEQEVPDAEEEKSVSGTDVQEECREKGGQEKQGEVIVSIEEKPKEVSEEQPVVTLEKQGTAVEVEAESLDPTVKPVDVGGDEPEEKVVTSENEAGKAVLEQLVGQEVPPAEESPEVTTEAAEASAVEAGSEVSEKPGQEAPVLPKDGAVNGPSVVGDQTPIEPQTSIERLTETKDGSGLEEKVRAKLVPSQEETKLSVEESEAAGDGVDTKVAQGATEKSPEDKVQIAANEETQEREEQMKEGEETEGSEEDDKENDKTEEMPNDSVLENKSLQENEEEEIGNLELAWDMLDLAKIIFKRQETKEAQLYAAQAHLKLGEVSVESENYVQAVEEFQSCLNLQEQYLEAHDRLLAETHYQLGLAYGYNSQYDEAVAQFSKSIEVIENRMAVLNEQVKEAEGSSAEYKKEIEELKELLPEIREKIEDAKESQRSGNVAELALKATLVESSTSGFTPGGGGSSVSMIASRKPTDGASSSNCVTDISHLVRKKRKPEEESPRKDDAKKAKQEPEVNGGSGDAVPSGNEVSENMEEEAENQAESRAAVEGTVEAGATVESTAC

What was measured:
Assay in all cases: log2 fold change, soluble protein after heating vs DMSO (PISA); higher = thermal stabilisation; K562 cells, 10 uM, 30 min; active = over 0.2 and 3.5 SD of the protein, either way, in both replicates (recomputed)
erlotinib = compound: C#Cc1cccc(Nc2ncnc3cc(OCCOC)c(OCCOC)cc23)c1 [erlotinib]
How it was run: (§1)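 Quantification of soluble protein used TMTpro 16plex LC-MS/MS, with channel sums equalised. Samples were the supernatant after 21,000xg for 90 min of pooled aliquots from K562 cells (2×10^6 cells/mL) treated with 10 μM compound for 30 min, heated for 3 min over 48°C-58°C, and extracted in PBS with 0.5% NP-40 at 4°C. Values, from duplicates, describe thermal stability against control samples on a log2 fold-change scale.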

[1] = compound: C/C(=N\NC(=O)C1=CC(=CC=C1)S(=O)(=O)N2CCOCC2)/C3=C(C=CC(=C3)Cl)O
How it was run: as §1

[2] = compound: C1=CC(=C(C=C1Cl)C2=NC3=NC=CN=C3C(=N2)NC4=CC=NC=C4)F
How it was run: as §1

[3] = compound: C1=CC(=CC=C1C2=NC3=C(N2)C=C(C=C3)C(=O)N)OC4=CC=C(C=C4)Cl
How it was run: as §1

[4] = compound: C1=CC2=C(C=CC(=C2)/C=C\3/C(=O)NC(=NCC4=CC=CS4)S3)N=C1
How it was run: as §1

[5] = compound: C1=CC2=NC=CN=C2C=C1/C=C/3\C(=O)NC(=O)S3
How it was run: as §1

[6] = compound: C1=CC=C(C=C1)C2=NC(=C(N2)C3=CC=NC=C3)C4=CC(=C(C=C4)Cl)O
How it was run: as §1

[7] = compound: C1=CC=C2C(=C1)C3=NNC4=CC=CC(=C43)C2=O
How it was run: as §1

[8] = compound: C1CCN(C1)C(=O)NC2=CC=CC(=C2)NC3=NC=C(C(=N3)NCCC4=CN=CN4)Br
How it was run: as §1

[9] = compound: C1CN(CCC1(CC2=CC=C(C=C2)Cl)N)C3=NC=NC4=C3C=CN4
How it was run: as §1

IRAK-1-4 Inhibitor I = compound: C1COCCN1CCN2C3=CC=CC=C3N=C2NC(=O)C4=CC(=CC=C4)[N+](=O)[O-] [IRAK-1-4 Inhibitor I]
How it was run: as §1

ibrutinib = compound: C=CC(=O)N1CCC[C@@H](n2nc(-c3ccc(Oc4ccccc4)cc3)c3c(N)ncnc32)C1 [ibrutinib]
How it was run: as §1

[10] = compound: CC(=O)c1cnc2ccc(-c3cc(Cl)c(O)c(Cl)c3)nc2c1N[C@H]1CC[C@H](CN(C)C)CC1
How it was run: as §1

ralimetinib = compound: CC(C)(C)Cn1c(N)nc2ccc(-c3[nH]c(C(C)(C)C)nc3-c3ccc(F)cc3)nc21 [ralimetinib]
How it was run: as §1

[11] = compound: CC(C)(O)CC(=O)NCCn1ccc2ncnc(Nc3ccc(Oc4cccc(C(F)(F)F)c4)c(Cl)c3)c21
How it was run: as §1

[12] = compound: CC(C)C1=C2N=C(C=C(N2N=C1)NCC3=CC=CC=C3)NCCCCCCN
How it was run: as §1

[13] = compound: CC(C)C[C@@H](C=O)NC(=O)[C@H](CC(C)C)NC(=O)[C@H](CC(C)C)NC(=O)OCc1ccccc1
How it was run: as §1

pinometostat = compound: CC(C)N(C[C@H]1O[C@@H](n2cnc3c(N)ncnc32)[C@H](O)[C@@H]1O)[C@H]1C[C@@H](CCc2nc3cc(C(C)(C)C)ccc3[nH]2)C1 [pinometostat]
How it was run: as §1

[14] = compound: CC1=C(C2=C(C=C1)C(=O)C3=CC=CC=C3N2CCCN)C
How it was run: as §1

[15] = compound: CC1=C(C(CC(=O)N1)C2=CC=C(C=C2)C(F)(F)F)C(=O)NC3=C(C=C4C(=C3)C=NN4)F
How it was run: as §1

Row | Target | log2 fold change (erlotinib) | log2 fold change [1] | log2 fold change [2] | log2 fold change [3] | log2 fold change [4] | log2 fold change [5] | log2 fold change [6] | log2 fold change [7] | log2 fold change [8] | log2 fold change [9] | log2 fold change (IRAK-1-4 Inhibitor I) | log2 fold change (ibrutinib) | log2 fold change [10] | log2 fold change (ralimetinib) | log2 fold change [11] | log2 fold change [12] | log2 fold change [13] | log2 fold change (pinometostat) | log2 fold change [14] | log2 fold change [15]
1 | NCL (UniProt P19338) | inactive: -0.154 | inactive: -0.231 | inactive: -0.723 | inactive: -0.012 | inactive: -0.109 | inactive: -0.017 | inactive: -0.112 | inactive: 0.061 | inactive: 0.037 | inactive: -0.148 | inactive: -0.144 | inactive: 0.034 | inactive: 0.118 | inactive: 0.166 | inactive: 0.119 | inactive: 0.07 | inactive: 0.121 | inactive: 0.4 | active: -0.891 | 
2 | NECTIN2 isoform 2 (UniProt Q92692) | inactive: -0.151 | inactive: 0.006 | inactive: -0.386 | inactive: 0.117 | inactive: 0.168 | inactive: -0.345 | inactive: -0.029 | inactive: -0.034 |  |  | inactive: -0.018 | inactive: 0.047 | inactive: 0.03 | inactive: 0.081 | inactive: 0.1 | inactive: 0.059 | inactive: 0.008 | inactive: -0.008 |  | 
3 | NAGPA (UniProt Q9UK23) | inactive: 0.046 | inactive: 0.023 | inactive: 0.046 | inactive: 0.056 | inactive: 0.033 | inactive: -0.018 |  | inactive: -0.025 | inactive: -0.013 | inactive: 0.148 | inactive: -0.078 | inactive: 0.228 | inactive: -0.014 |  | inactive: 0.03 | inactive: 0.112 |  | inactive: 0.052 | inactive: -0.062 | 
4 | NANS (UniProt Q9NR45) | inactive: -0.016 | inactive: 0.031 | inactive: 0.066 | inactive: -0.022 | inactive: 0.028 | inactive: 0.023 | inactive: 0.036 | inactive: 0.02 | inactive: 0.016 | inactive: 0.022 | inactive: 0.091 | inactive: -0.034 | inactive: -0.01 | inactive: 0.015 | inactive: -0.043 | inactive: -0.006 | inactive: -0.036 | inactive: 0 | inactive: 0.065 | 
5 | NCAPD2 (UniProt Q15021) | inactive: 0.029 | inactive: 0.107 | inactive: 0.005 | inactive: -0.05 | inactive: 0.024 | inactive: 0.04 | inactive: 0.013 | inactive: 0.022 | inactive: -0.001 | inactive: -0.103 | inactive: -0.101 | inactive: -0.067 | inactive: 0.097 | inactive: 0.048 | inactive: -0.151 | inactive: -0.208 | inactive: 0.054 | inactive: 0.039 | inactive: -0.036 | 
6 | NCAPG (UniProt Q9BPX3) | inactive: -0.007 | inactive: 0.114 | inactive: 0.013 | inactive: -0.03 | inactive: 0.005 | inactive: 0.002 | inactive: 0.027 | inactive: 0.043 | inactive: -0.044 | inactive: -0.104 | inactive: -0.092 | inactive: -0.033 | inactive: 0.084 | inactive: 0.038 | inactive: -0.126 | inactive: -0.197 | inactive: -0.005 | inactive: -0.003 | inactive: 0.016 | 
7 | NDUFA4 (UniProt O00483) | inactive: -0.134 | inactive: 0.002 | inactive: 0.258 | inactive: 0.042 | inactive: 0.047 | inactive: 0.072 | inactive: 0.038 | inactive: 0.011 | inactive: 0.086 | inactive: -0.017 | inactive: 0 | inactive: -0.019 | inactive: -0.024 | inactive: -0.098 | inactive: -0.029 | inactive: -0.018 | inactive: -0.009 | inactive: -0.013 | inactive: 0.126 | 
8 | NANP (UniProt Q8TBE9) | inactive: 0.094 | inactive: 0.004 | inactive: -0.01 | inactive: 0.058 | inactive: 0.09 | inactive: 0.013 |  | inactive: -0.006 | inactive: -0.006 | inactive: -0.099 |  | inactive: -0.034 | inactive: -0.015 |  | inactive: -0.064 | inactive: 0.04 |  |  | inactive: -0.095 | inactive: 0
9 | NDEL1 isoform 2 (UniProt Q9GZM8) | inactive: 0.021 | inactive: 0.066 | inactive: 0.041 | inactive: 0 | inactive: 0.093 | inactive: 0.033 | inactive: -0.07 | inactive: -0.036 | inactive: 0.035 | inactive: -0.006 |  | inactive: -0.056 | inactive: -0.139 | inactive: -0.062 | inactive: -0.104 | inactive: -0.026 | inactive: 0.071 |  | inactive: 0.051 | inactive: -0.008
10 | NDUFB8 (UniProt O95169) | inactive: -0.026 | inactive: -0.047 | inactive: 0.129 | inactive: 0.005 | inactive: 0.033 | inactive: 0.087 | inactive: -0.026 | inactive: 0.07 | inactive: -0.008 | inactive: 0.06 | inactive: 0.001 | inactive: -0.01 | inactive: -0.004 | inactive: -0.063 | active: -0.36 | inactive: -0.042 | inactive: 0.059 | inactive: 0.003 | inactive: 0.103 | 
11 | NDUFA6 (UniProt P56556) | inactive: 0.014 | inactive: 0.133 | inactive: 0.11 | inactive: -0.015 | inactive: -0.045 | inactive: 0.002 | inactive: 0.104 | inactive: 0.042 | inactive: -0.031 | inactive: -0.008 | inactive: -0.004 | inactive: -0.031 | inactive: -0.092 | inactive: -0.046 | inactive: -0.214 | inactive: -0.05 | inactive: -0.045 | inactive: -0.083 | inactive: 0.175 | 
12 | NDUFB10 (UniProt O96000) | inactive: -0.009 | inactive: -0.067 | inactive: 0.018 | inactive: 0.03 | inactive: 0.06 | inactive: 0.025 | inactive: -0.038 | inactive: -0.021 | inactive: 0.026 | inactive: 0.045 | inactive: 0.015 | inactive: 0.009 | inactive: -0.001 | inactive: -0.057 | inactive: -0.018 | inactive: -0.11 | inactive: 0.023 | inactive: -0.018 | inactive: 0.009 | 
13 | NAT14 (UniProt Q8WUY8) | inactive: -0.016 | inactive: 0.079 | inactive: -0.002 | inactive: 0.014 | inactive: 0.057 | inactive: 0.046 | inactive: 0.135 | inactive: 0.033 | inactive: 0.002 | inactive: -0.084 | inactive: -0.061 | inactive: 0.019 | inactive: -0.033 | inactive: -0.028 | inactive: -0.257 | inactive: -0.185 | inactive: 0.027 | inactive: -0.074 | inactive: -0.187 | 
14 | NAA38 isoform 2 (UniProt Q9BRA0) | inactive: 0.139 | inactive: 0.083 | inactive: 0.092 | inactive: -0.003 | inactive: 0.034 | inactive: 0.015 | inactive: 0.044 | inactive: -0.016 | inactive: -0.009 | inactive: 0.082 | inactive: 0.047 | inactive: -0.021 | inactive: -0.034 | inactive: 0.02 | inactive: -0.095 | active: -0.397 | inactive: -0.001 | inactive: 0.035 | inactive: -0.01 | 
15 | NDUFS7 (UniProt O75251) | inactive: 0.129 | inactive: -0.011 | inactive: 0.039 | inactive: -0.011 | inactive: 0.062 | inactive: 0.038 | inactive: -0.052 | inactive: 0.035 | inactive: 0.045 | inactive: 0.011 | inactive: 0.045 | inactive: -0.04 | inactive: -0.016 | inactive: -0.1 | inactive: -0.1 | inactive: -0.086 | inactive: 0.05 | inactive: -0.03 | inactive: 0.043 | 
16 | NASP (UniProt P49321) | inactive: -0.018 | inactive: 0.048 | inactive: 0.079 | inactive: -0.018 | inactive: -0.02 | inactive: 0.059 | inactive: -0.018 | inactive: -0.004 | inactive: 0.001 | inactive: -0.022 | inactive: 0.01 | inactive: -0.044 | inactive: 0.033 | inactive: 0.019 | inactive: -0.004 | inactive: -0.05 | inactive: -0.009 | inactive: -0.048 | inactive: -0.09 | 

Some of the entries above in another layout.
Row,Target,log2 fold change (erlotinib),log2 fold change [1],log2 fold change [2],log2 fold change [3],log2 fold change [4],log2 fold change [5],log2 fold change [6],log2 fold change [7],log2 fold change [8],log2 fold change [9],log2 fold change (IRAK-1-4 Inhibitor I),log2 fold change (ibrutinib),log2 fold change [10],log2 fold change (ralimetinib),log2 fold change [11],log2 fold change [12],log2 fold change [13],log2 fold change (pinometostat),log2 fold change [14],log2 fold change [15]
7,NDUFA4 (UniProt O00483),inactive: -0.134,inactive: 0.002,inactive: 0.258,inactive: 0.042,inactive: 0.047,inactive: 0.072,inactive: 0.038,inactive: 0.011,inactive: 0.086,inactive: -0.017,inactive: 0,inactive: -0.019,inactive: -0.024,inactive: -0.098,inactive: -0.029,inactive: -0.018,inactive: -0.009,inactive: -0.013,inactive: 0.126,
12,NDUFB10 (UniProt O96000),inactive: -0.009,inactive: -0.067,inactive: 0.018,inactive: 0.03,inactive: 0.06,inactive: 0.025,inactive: -0.038,inactive: -0.021,inactive: 0.026,inactive: 0.045,inactive: 0.015,inactive: 0.009,inactive: -0.001,inactive: -0.057,inactive: -0.018,inactive: -0.11,inactive: 0.023,inactive: -0.018,inactive: 0.009,
